Laboratory results published in PubChem BioAssay (Tox21).
Inconclusive results, whose numbers are uncertain, are shown with a selection of clear calls. A potency beside an inconclusive call is a rough fit, not a confirmed value. Activity calls are given as the source filed them. Unless noted, the call rests on the fitted dose curve.

System: not listed separately
Experiment: cAMP Responsive Elements (CRE) small molecule antagonists, cell-based qHTS assay (AID 1963591; active means well fitted inhibition curve with a large enough effect in the signal ratio in the repeat runs, not every such curve was filed as active; inconclusive means weak or mixed curves, or effect the other way; the % refers to the signal ratio)
Conditions: CRE-bla HEK293T, beta-lactamase FRET ratio; activity change, negative = inhibition: at 92.4 µM (top of the series) unless noted
In short: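 CRE-bla HEK293T cells were plated 18 h at 37 °C/5% CO2, pinned with compound in DMSO, then stimulated with NKH477 at 0.25 uM final for 3 h. LiveBLAzer B/G FRET substrate was added and plates incubated 2 h at room temperature.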
On the % scale 0 is the no-effect control and ±100 the full control effect; potency means the concentration at half of the fitted maximal effect.

SMILES | activity change, negative = inhibition | Potency
CC(C)=CCOC(=O)c1ccccc1 | inconclusive: 1.64% | 
Cc1ccc(-n2nc(C(C)(C)C)cc2NC(=O)Nc2ccc(OCCN3CCOCC3)c3ccccc23)cc1 |  | inconclusive: 9.44 µM [fluorescent, full curve, poor fit]
CNC(=O)c1ccccc1Sc1ccc2c(/C=C/c3ccccn3)n[nH]c2c1 |  | inconclusive: 33.5 µM [single point]
CCC(Cc1ccccc1)(C(=O)c1ccc(N2CCOCC2)cc1)N(C)C (stereo unspecified) |  | inconclusive: 54.5 µM [activator, partial curve]
COc1cc(NC(=O)CC(C)=O)c(OC)cc1Cl | inconclusive: 25.3% | inconclusive: 40.3 µM [fluorescent, partial curve, poor fit]
C/C(=C\C(C)CC(C)CC(C)C)C1CC(=O)OC1=O (stereo unspecified) | inconclusive: 0.835% | 
CCOC(=O)N1CCC(n2c(=O)[nH]c3cc(Cl)ccc32)CC1 | inconclusive: 18.1% [at 42.4 µM] | 
O=C(O)Cc1csc(-c2ccc(Cl)cc2)n1 |  | inconclusive: 13.3 µM [fluorescent, partial curve, poor fit]
CCOC(=O)C1=NN(c2ccc(Cl)cc2Cl)C(C)(C(=O)OCC)C1 (stereo unspecified) |  | inactive
O=C1NC(=O)[C@@H]2CC=CC[C@H]12 |  | inconclusive: 54.5 µM [activator]
COc1cc(C(=O)OC(COCCC(C)C)CN2CCOCC2)cc(OC)c1OC (stereo unspecified) |  | inconclusive: 11.9 µM [activator]
Cc1ccc(/C(=C\CN2CCCC2)c2ccccn2)cc1 |  | inconclusive: 0.0072 µM [fluorescent, full curve, poor fit]
CCCCCCc1ccc(N)cc1 | inconclusive: 0.417% | 

Target: Beta-2 adrenergic receptor (Homo sapiens) (UniProt P07550)
Experiment: Adrenergic beta2 receptor (ADRB2) small molecule antagonists, cell-based qHTS assay (AID 1963592); further: nearly all actives have a fitted effect of over 50% in size
Conditions: CHO-ADRB2 cells, isoproterenol-stimulated cAMP HTRF ratio, 0.5 h; activity change, negative = inhibition: at 92.4 µM (top of the series) unless noted
In short: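 Cells (CHO, stable ADRB2 overexpression) incubated 18-20hr at 37C; compounds added from DMSO; agonist mix (1nM isoproterenol, 100uM IBMX, 25uM Ro-20-1724) added; 0.5hr RT; d2-cAMP and anti-cAMP-cryptate added; 1hr RT; 665/615 nm read.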

SMILES | Potency | activity change, negative = inhibition
CC(C)=CCOC(=O)c1ccccc1 | inactive | 
Cc1ccc(-n2nc(C(C)(C)C)cc2NC(=O)Nc2ccc(OCCN3CCOCC3)c3ccccc23)cc1 | inconclusive: 26.6 µM [falling, partial curve, poor fit] | 
CCc1cccc(CC)c1 | inactive | 
O=C(O)Cc1csc(-c2ccc(Cl)cc2)n1 | inconclusive: 26.6 µM [inhibitor, partial curve, poor fit] | 
Cc1cc(O)c(C)c(C)c1O |  | inconclusive: -8.19% [at 42.5 µM]
COc1cc(C(=O)OC(COCCC(C)C)CN2CCOCC2)cc(OC)c1OC (stereo unspecified) | inconclusive: 7.5 µM [inhibitor, full curve, poor fit] | 
CO[C@H]1C=CO[C@@]2(C)Oc3c(C)c(O)c4c(O)c(cc(O)c4c3C2=O)NC(=O)/C(C)=C\C=C/[C@H](C)[C@H](O)[C@@H](C)[C@@H](O)[C@@H](C)[C@H](OC(C)=O)[C@@H]1C |  | inconclusive: 13.1%

Full records as entered above.
CC(C)=CCOC(=O)c1ccccc1 as listed: Potency: inactive
Cc1ccc(-n2nc(C(C)(C)C)cc2NC(=O)Nc2ccc(OCCN3CCOCC3)c3ccccc23)cc1 as listed: Potency: inconclusive: 26.6 µM [falling, partial curve, poor fit]
